{"sequences": {"note": "Chains of the proteins cited; added tags and fusions are not shown. Lines headed by an entry give the natural chain unless they say otherwise; changes in a name come on top.", "UniProt P18054": "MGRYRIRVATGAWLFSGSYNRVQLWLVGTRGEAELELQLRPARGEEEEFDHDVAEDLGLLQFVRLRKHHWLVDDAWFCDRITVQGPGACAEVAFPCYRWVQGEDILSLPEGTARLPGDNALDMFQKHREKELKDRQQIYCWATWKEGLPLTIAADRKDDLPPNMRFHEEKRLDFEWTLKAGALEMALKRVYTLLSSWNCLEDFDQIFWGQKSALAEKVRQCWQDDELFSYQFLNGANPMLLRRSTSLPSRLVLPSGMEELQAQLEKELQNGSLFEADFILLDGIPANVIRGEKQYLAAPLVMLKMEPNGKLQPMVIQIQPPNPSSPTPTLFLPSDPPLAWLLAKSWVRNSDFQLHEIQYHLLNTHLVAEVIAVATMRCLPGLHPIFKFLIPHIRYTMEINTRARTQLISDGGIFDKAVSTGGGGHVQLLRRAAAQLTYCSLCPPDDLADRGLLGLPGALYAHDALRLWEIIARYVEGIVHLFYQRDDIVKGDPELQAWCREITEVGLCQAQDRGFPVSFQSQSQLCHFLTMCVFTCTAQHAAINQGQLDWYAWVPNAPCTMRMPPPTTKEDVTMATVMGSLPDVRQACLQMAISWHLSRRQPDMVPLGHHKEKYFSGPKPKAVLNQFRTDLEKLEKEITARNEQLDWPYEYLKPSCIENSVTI"}, "source": "PubChem BioAssay AID1671190", "about": "(National Center for Advancing Translational Sciences (NCATS), 2021)", "note": "The campaign covered roughly 580,000 compounds. About 6,100 (1.1%) were called active. This list was built around the results that the source calls inconclusive (neither active nor inactive); the mix of calls is not that of the screen. Calls come from the whole dose curve; as a rule, active = well fitted inhibition curve with a large enough effect; inconclusive = small, poorly fitted or top-dose-only effect, or another doubt; inactive = no such curve, though single readings can be large or run the other way. Where the call is inconclusive, the potency comes from a doubtful curve fit. % is set by controls: 0 for no effect and ±100 for the full control effect; potency is the fitted concentration of half-maximal effect.", "data": [{"target": "Polyunsaturated fatty acid lipoxygenase ALOX12 (Homo sapiens) (UniProt P18054)", "test": "Primary qHTS assay for inhibitors of human arachidonate 12S-lipoxygenase (ALOX12): Round 2", "settings": "purified 12hLO, xylenol orange hydroperoxide absorbance; activity change, negative = inhibition: at 108 µM (top of the series) unless noted", "procedure,_shortened": "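Purified human 12hLO at 150 nM in 25 mM Hepes, 0.01% Triton X-100, pH 7.0, preincubated 15 min at room temperature with compound. Reaction started with 40 uM arachidonic acid, 30 min at room temperature. Hydroperoxide measured by Fe-xylenol orange, 573/405 nm absorbance ratio.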", "values": [{"smiles": "Cc1ccc(CCNC(=O)CCS(=O)(=O)c2ccc3c(c2)NC(=O)CS3)cc1", "Potency": "inconclusive: 50.1 µM [inhibitor, partial curve, poor fit]"}, {"smiles": "O=C(CCCc1ccccc1)c1ccc2c(c1)OCCO2", "activity change, negative = inhibition": "inactive: -8.9%"}, {"smiles": "Clc1ccc(-c2onc3ccc(-c4ccccc4)cc23)cc1", "Potency": "inconclusive: 44.7 µM [inhibitor, partial curve, poor fit]"}, {"smiles": "CCN(CC)c1ccc2c(C)cc(=O)oc2c1", "activity change, negative = inhibition": "inactive: -11.7%"}, {"smiles": "Cc1n[nH]c(=S)n1/N=C/c1ccc(-c2ccccc2[N+](=O)[O-])o1", "Potency": "inconclusive: 50.1 µM [inhibitor, single point]"}, {"smiles": "CCOC(=O)c1c(-c2ccc(-c3ccccc3)cc2)csc1NC(=O)C1C2CCC(O2)C1C(=O)O", "note": "(centres undefined)", "Potency": "inconclusive: 5.01 µM [inhibitor, full curve, poor fit]"}, {"smiles": "Cc1ccccc1C(=O)NC1CCC(C(F)(F)F)CC1", "note": "(centres undefined)", "activity change, negative = inhibition": "inactive: -7.47%"}, {"smiles": "CCN1CCN(c2cc(C)c3cc(NC(=O)/C=C/c4cccc(Cl)c4)ccc3n2)CC1", "Potency": "inconclusive: 70.8 µM [inhibitor, partial curve, poor fit]"}, {"smiles": "COc1ccc(C(=O)NCCn2cc(SCC(=O)NCc3ccco3)c3ccccc32)cc1", "activity change, negative = inhibition": "inactive: -10.2%"}, {"smiles": "Cc1sc2nc(C(C)Sc3nnnn3C(C)(C)C)[nH]c(=O)c2c1C", "note": "(centres undefined)", "Potency": "inconclusive: 0.891 µM [inhibitor, full curve, poor fit]"}, {"smiles": "Cc1cc(C)cc(NC(=O)CCNC(=O)C2CCCC2)c1", "Potency": "inconclusive: 126 µM [inhibitor, single point]"}, {"smiles": "S=c1sc2c(s1)SC1C3CCC(C3)C1S2", "note": "(centres undefined)", "Potency": "inconclusive: 112 µM [inhibitor, single point]"}, {"smiles": "CCCCC[C@H](O)C=C[C@H]1[C@H](O)CC(=O)[C@H]1CC=CCCCC(=O)O", "activity change, negative = inhibition": "inactive: -16.6% [at 57.4 µM]"}, {"smiles": "CCOC(=O)c1c(C)[nH]c2cc(Br)c(OC)cc12", "activity change, negative = inhibition": "inactive: -25%"}, {"smiles": "COc1ccc(C(=O)NCC2Cn3cccc3CN2Cc2cccnc2)cc1", "note": "(centres undefined)", "activity change, negative = inhibition": "inactive: 224%"}, {"smiles": "O=C(O)CCC(=O)N[C@H]1CCN2C(=O)c3cc(-c4ccc(Cl)cc4)ccc3NC(=O)[C@H]12", "Potency": "inconclusive: 56.2 µM [inhibitor, partial curve, poor fit]"}, {"smiles": "COc1cc(OC)cc(C(=O)N2CCC3(CC2)NC(=O)N(c2ccc(F)cc2)N3)c1", "Potency": "inconclusive: 1.58 µM [inhibitor, full curve, poor fit]"}, {"smiles": "O=C(Nc1ccc(N2CCCCC2)c2ccncc12)C1CCC1", "Potency": "inconclusive: 0.251 µM [inhibitor, full curve, poor fit]"}, {"smiles": "Cn1c(-c2ccccc2)c(C(=O)C(=O)NC(C)(C)C)c2ccccc21", "Potency": "inconclusive: 63.1 µM [inhibitor, partial curve, poor fit]"}, {"smiles": "COc1ccc(OC)c2c(C)c(C)[nH]c12", "Potency": "inconclusive: 44.7 µM [inhibitor, partial curve, poor fit]"}, {"smiles": "COc1ccc(CN(CCc2ccccc2)Cc2ccccc2)cc1OC", "Potency": "inconclusive: 0.282 µM [inhibitor, full curve, poor fit]"}, {"smiles": "CCOc1ccc(NC(=O)CN2CCN(CC(=O)Nc3ccc4c(c3)OCO4)CC2)cc1", "Potency": "inconclusive: 0.355 µM [inhibitor, full curve, poor fit]"}, {"smiles": "O=C1CC2(CCN(CC3CCOCC3)C2)Nc2ccccc2N1", "note": "(centres undefined)", "activity change, negative = inhibition": "inactive: -1.12% [at 6.33 µM]"}, {"smiles": "CCCCNC(=O)CSc1nc(CCC)nc2ccccc12", "activity change, negative = inhibition": "inactive: 0%"}, {"smiles": "CCOc1cc(S(=O)(=O)N(Cc2ccccc2)Cc2ccccc2)c(OCC)cc1-n1cnnn1", "activity change, negative = inhibition": "inactive: 1.19%"}, {"smiles": "COC(=O)c1ccc(C(=O)OC)c(NC(=O)CCC(=O)O)c1", "activity change, negative = inhibition": "inactive: -8.95%"}, {"smiles": "C=CCN(c1ccccc1)S(=O)(=O)c1cccc(C(=O)N2CCCC2)c1", "activity change, negative = inhibition": "inactive: -6.83%"}, {"smiles": "CN(C)CCN(C(=O)c1ccc2c(c1)CCCC2)c1nc2c(F)cccc2s1", "Potency": "inconclusive: 112 µM [inhibitor, single point]"}, {"smiles": "COc1cccc(NC(=O)C(C)(C)C)c1", "Potency": "inconclusive: 31.6 µM [inhibitor, single point]"}, {"smiles": "Cc1ccc(NS(=O)(=O)c2cn(C)cn2)cc1", "Potency": "inconclusive: 79.4 µM [inhibitor, partial curve, poor fit]"}, {"smiles": "CN(CC(=O)NCc1cccs1)S(=O)(=O)c1cccc2nsnc12", "Potency": "inconclusive: 100 µM [inhibitor, single point]"}, {"smiles": "Cc1ccc(SCC(=O)OCC(=O)N(C)CC(=O)Nc2ccc(F)cc2)cc1C", "Potency": "inconclusive: 44.7 µM [inhibitor, partial curve, poor fit]"}, {"smiles": "O=C(NCC1COc2ccccc2O1)c1cccc(S(=O)(=O)NCc2ccccc2)c1", "note": "(centres undefined)", "Potency": "inconclusive: 89.1 µM [inhibitor, single point]"}, {"smiles": "COC(=O)Cn1nnnc1-c1nc2cc(C)c(C)cc2[nH]c1=O", "Potency": "inconclusive: 44.7 µM [inhibitor, partial curve]"}, {"smiles": "CCN1CCN(CCNC(=O)c2ccc(/C=C3/Sc4ccccc4N(Cc4cccc(Cl)c4)C3=O)cc2)CC1", "activity change, negative = inhibition": "inactive: -9.9%"}, {"smiles": "O=C(Nc1ccccc1)/C(=C\\c1ccco1)NC(=O)c1ccco1", "Potency": "inconclusive: 79.4 µM [inhibitor, partial curve, poor fit]"}, {"smiles": "O=C(NC1CCN(Cc2ccc3ccccc3c2)CC1)c1ccccc1", "Potency": "inconclusive: 25.1 µM [inhibitor, partial curve, poor fit]"}, {"smiles": "CCOC(=O)N1CCC(=NNc2nc3ccccc3s2)CC1", "activity change, negative = inhibition": "inactive: -23.3%"}, {"smiles": "Cc1cccc(CNc2nc(-c3ccoc3)nc3ccccc23)c1", "Potency": "inconclusive: 8.91 µM [inhibitor, full curve, poor fit]"}, {"smiles": "O=C(COC(=O)c1ncc(Cl)c(Cl)c1Cl)c1ccc(Cl)s1", "Potency": "inconclusive: 20 µM [inhibitor, partial curve]"}, {"smiles": "CCc1ccc(NC(=O)CSc2nc3c(=O)[nH]cnc3n2-c2ccc(C)cc2)cc1", "activity change, negative = inhibition": "inactive: 17%"}, {"smiles": "COc1ccc(N2CCN(C(=O)CCS(=O)(=O)c3cc(Br)cc4c3N(C(=O)C3CC3)CC4)CC2)cc1", "Potency": "inconclusive: 0.355 µM [inhibitor, full curve, poor fit]"}, {"smiles": "O=C(Nc1ccc(NC(=O)c2cccs2)cc1)c1ccc2c(c1)OCCO2", "activity change, negative = inhibition": "inactive: -11.1%"}, {"smiles": "COc1ccc2cc(C(C)C(=O)NC3CC3)ccc2c1", "note": "(centres undefined)", "activity change, negative = inhibition": "inactive: -9.39%"}]}]}
